PubChem BioAssay AID504774 | Drosophila RNAi Screening Center – 2011
Assay: 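Knock-downs that shift viability of MMS-exposed cells relative to untreated ones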 (primary screen). Cell system: Drosophila Kc167 cells. Reagent: long dsRNA against Drosophila genes, about 0.25 µg dsRNA per well. Timing: about 6 days: 3 days knock-down, then 3 days with or without MMS. Treatment: methyl methanesulphonate 0.004% (w/v) for 3 days after knock-down. Measurement: 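ATP-dependent luminescence as a measure of live cells in MMS-exposed wells, quantile normalised within each plate, with replicate values also given as a mean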. Direction: mean viability with MMS: higher = more surviving cells after MMS.
In all, the deposit lists about 23,000 reagents; below is an unselected part of those that have a named target and a result. 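Values are quantile-normalised luminescence on an arbitrary scale; higher means more cells surviving MMS.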 Names joined by + are all predicted targets of the reagent. Not all columns of the deposit are shown.

CG6583 (GeneID 34645) [DRSC02972] gave mean viability with MMS 3.55e6.
With knock-down of CG42703 (GeneID 10178828) [DRSC03973], the record shows mean viability with MMS 3.40e6.
Drsl1 (GeneID 326207) [DRSC22490] scored mean viability with MMS 3.61e6.
CG43347 (GeneID 31991) [DRSC17982] scored mean viability with MMS 3.42e6.
Knock-down of CG43347 (GeneID 31991) [DRSC18446] gave: mean viability with MMS 3.65e6.
Against CG43347 (GeneID 31991) [DRSC22656], the values are mean viability with MMS 2.88e6.
For CG43347 (GeneID 31991) [DRSC22682], the values are mean viability with MMS 3.36e6.
With knock-down of CG43347 (GeneID 31991) [DRSC23007] the results were mean viability with MMS 3.55e6.
Against CG43347 (GeneID 31991) [DRSC23170], the values are mean viability with MMS 3.42e6.
Silencing of CG17261 (GeneID 33522) [DRSC00498] resulted in: mean viability with MMS 3.48e6.
Depletion of His2B:CG33894 + His2B:CG33872 + His2B:CG33902 + 20 more [DRSC21265] resulted in: mean viability with MMS 3.15e6.
insv (GeneID 33441) [DRSC00579] gave mean viability with MMS 3.46e6.
Against PpD3 (GeneID 49779) [DRSC16796], the values are mean viability with MMS 3.64e6.
For sut2 (GeneID 44269) [DRSC07701], the values are mean viability with MMS 3.66e6.
For Gr93d (GeneID 117470) [DRSC21941], the values are mean viability with MMS 3.54e6.
Against CG13887 (GeneID 38096) [DRSC08357], the entry reads mean viability with MMS 3.52e6.
CG4611 (GeneID 38601) [DRSC10434] scored mean viability with MMS 3.57e6.
Against CG34289 (GeneID 5740640) [DRSC13625], the values are mean viability with MMS 3.43e6.
With knock-down of pea (GeneID 36561) [DRSC07120] the results were mean viability with MMS 3.25e6.
Against CG8079 (GeneID 36689) [DRSC07070], the entry reads mean viability with MMS 3.60e6.
For CG8079 (GeneID 36689) [DRSC07071], the values are mean viability with MMS 3.55e6.
For Nep6 (GeneID 32234) [DRSC19877], the entry reads mean viability with MMS 3.26e6.
Depletion of CG34342 (GeneID 5740152) [DRSC09756] resulted in: mean viability with MMS 3.53e6.
For CG34342 (GeneID 5740152) [DRSC22515], the values are mean viability with MMS 3.26e6.

5 entries already listed, arranged by “mean viability with MMS”, ascending.
CG43347 (GeneID 31991) [DRSC22656] | mean viability with MMS = 2.88e6
CG43347 (GeneID 31991) [DRSC22682] | mean viability with MMS = 3.36e6
CG43347 (GeneID 31991) [DRSC17982] | mean viability with MMS = 3.42e6
Drsl1 (GeneID 326207) [DRSC22490] | mean viability with MMS = 3.61e6
CG43347 (GeneID 31991) [DRSC18446] | mean viability with MMS = 3.65e6

More entries follow:
After knock-down of peg (GeneID 50050) [DRSC15216], the record shows mean viability with MMS 3.58e6.
Silencing of Ric (GeneID 36776) [DRSC07532] came out at: mean viability with MMS 3.62e6.
Depletion of trio (GeneID 43974) [DRSC07928] gave: mean viability with MMS 3.37e6.
trio (GeneID 43974) [DRSC08527] gave mean viability with MMS 3.20e6.
After knock-down of trio (GeneID 43974) [DRSC08740], the screen gave mean viability with MMS 3.60e6.
With knock-down of CG13843 (GeneID 42668) [DRSC14693], the screen gave mean viability with MMS 3.45e6.
After knock-down of skd (GeneID 43906) [DRSC11898], the record shows mean viability with MMS 3.40e6.
Silencing of CG4098 (GeneID 39854) [DRSC10399] resulted in: mean viability with MMS 3.65e6.
For CG17572 (GeneID 35182) [DRSC02629] the deposit lists mean viability with MMS 3.57e6.
Knock-down of CG14395 (GeneID 41560) [DRSC14852] gave: mean viability with MMS 3.46e6.
Depletion of Tmlh (GeneID 42421) [DRSC15563] resulted in: mean viability with MMS 3.55e6.
Depletion of CycA (GeneID 39340) [DRSC09132] resulted in: mean viability with MMS 3.50e6.
Against CycA (GeneID 39340) [DRSC11123], the entry reads mean viability with MMS 3.45e6.
CG14937 (GeneID 34591) [DRSC02419] gave mean viability with MMS 3.31e6.
Against CG4424 (GeneID 42390) [DRSC15576] the deposit lists mean viability with MMS 3.54e6.
With knock-down of Sptz (GeneID 41370) [DRSC15758] the results were mean viability with MMS 3.45e6.
After knock-down of SC35 (GeneID 53444) [DRSC02502], the screen gave mean viability with MMS 3.38e6.
SC35 (GeneID 53444) [DRSC03425] showed mean viability with MMS 3.45e6.
With knock-down of CG14212 (GeneID 32964) [DRSC19568] the results were mean viability with MMS 3.58e6.
For Skeletor (retired record) (GeneID 3771796) [DRSC14905], the entry reads mean viability with MMS 3.66e6.
Skeletor (retired record) (GeneID 3771796) [DRSC14906] showed mean viability with MMS 3.48e6.
